Laboratory results taken from patent publication US20160145619.
Construct, isoform or probe ends are uncertain for at least one entry.

Sequences of proteins named here, by UniProt entry; tags and fusion partners are left off. A change or cut given only in a name is not applied to a line headed by its entry.
UniProt Q04609: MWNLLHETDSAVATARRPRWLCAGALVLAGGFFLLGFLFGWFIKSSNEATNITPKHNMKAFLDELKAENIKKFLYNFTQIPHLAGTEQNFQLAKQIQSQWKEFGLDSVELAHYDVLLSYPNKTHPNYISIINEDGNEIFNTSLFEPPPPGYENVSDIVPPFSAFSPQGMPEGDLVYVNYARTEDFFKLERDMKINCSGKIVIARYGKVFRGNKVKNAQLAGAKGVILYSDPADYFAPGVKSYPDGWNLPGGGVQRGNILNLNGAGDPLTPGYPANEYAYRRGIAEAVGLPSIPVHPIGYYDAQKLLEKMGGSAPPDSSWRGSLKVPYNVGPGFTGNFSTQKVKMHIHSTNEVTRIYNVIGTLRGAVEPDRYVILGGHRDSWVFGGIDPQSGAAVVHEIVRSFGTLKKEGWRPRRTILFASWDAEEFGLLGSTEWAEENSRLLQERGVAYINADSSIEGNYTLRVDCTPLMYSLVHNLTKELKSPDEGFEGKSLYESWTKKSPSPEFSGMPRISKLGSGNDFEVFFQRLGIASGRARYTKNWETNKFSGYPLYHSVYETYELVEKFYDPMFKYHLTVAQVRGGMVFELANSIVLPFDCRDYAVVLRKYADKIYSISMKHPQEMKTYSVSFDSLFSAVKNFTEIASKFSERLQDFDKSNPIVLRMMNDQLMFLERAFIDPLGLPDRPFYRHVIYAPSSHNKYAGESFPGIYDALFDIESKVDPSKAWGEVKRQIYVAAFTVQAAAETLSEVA

Target: Prostate specific membrane antigen (PSMA), extracellular domain (UniProt Q04609)
Assay: SELEX
Settings: 9 of 10 clones in second SELEX; binding 60 min at 37 C; purified recombinant protein; label: Rhodamine or Quasar 570; single-stranded DNA

GCGTTTTCGCTTTTGCGTTTTGGGTCATCTGCTTACGATAGCAATCGT [PSMA01]
selection result: selected
